Test results reported in US20160227774A1 (priority 2015, published 2016).
Where a name gives a salt, the structure may show the parent alone. At least one compound was matched to its structure with a doubt left.

Tested on: Ca. Liberibacter asiaticus
Format: in vivo, Candidatus Liberibacter asiaticus
Details: trunk injection; both trials

SMILES: CN(C)[C@@H]1C(O)=C(C(N)=O)C(=O)[C@@]2(O)C(O)=C3C(=O)c4c(O)cccc4[C@@](C)(O)[C@H]3[C@H](O)[C@@H]12 [OTC, oxytetracycline hydrochloride, reference compound]
- Effect on Las bacterial titer versus control one week after injection (in words): significantly reduced
